Measurements taken from PMC8748510.
Numbering of substitutions follows the chain as printed. Numbers in names are those of the source. These are yes or no findings as the source states them, for the method shown. Binding seen in cells or lysates may run through a third protein. Some binding calls cover weakened binding; strength is not graded here. For part of these data: Tags and fused reporters may be left off the sequences shown.

Amino acid sequences for entries named in this document (tags omitted).
UniProt O15105: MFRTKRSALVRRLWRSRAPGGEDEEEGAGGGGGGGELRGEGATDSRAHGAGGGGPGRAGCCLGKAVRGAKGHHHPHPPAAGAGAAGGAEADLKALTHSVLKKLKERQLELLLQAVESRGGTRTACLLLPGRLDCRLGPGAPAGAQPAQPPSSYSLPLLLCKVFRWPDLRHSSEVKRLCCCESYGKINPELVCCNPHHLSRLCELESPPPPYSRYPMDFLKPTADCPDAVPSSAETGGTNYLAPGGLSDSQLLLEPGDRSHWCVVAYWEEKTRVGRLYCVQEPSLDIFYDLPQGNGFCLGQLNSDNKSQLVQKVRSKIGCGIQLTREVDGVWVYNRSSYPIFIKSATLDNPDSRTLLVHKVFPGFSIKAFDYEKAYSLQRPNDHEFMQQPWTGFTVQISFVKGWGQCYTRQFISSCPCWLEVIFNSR

Experiments:
[1] = target: Flag-SMAD7 (UniProt O15105); test: co-IP; HEK293T cells co-transfected with Flag-SMAD7 and Myc-RNF12 wild-type or mutant plasmids; lysates 48 h post-transfection; anti-FLAG immunoprecipitation, anti-Myc western blotting
[2] = target: endogenous SMAD7 (human (endogenous; cells not named, all cell lines of the paper are human)) (UniProt O15105); test: co-IP; endogenous RNF12 and SMAD7; cells with or without the AKT inhibitor MK2206; cells and precipitating antibody not given

B1: Myc-RNF12 wild-type (protein, UniProt Q9NVW2 1-624)
chain: MENSDSNDKGSGDQSAAQRRSQMDRLDREEAFYQFVNNLSEEDYRLMRDNNLLGTPGESTEEELLRRLQQIKEGPPPQNSDENRGGDSSDDVSNGDSIIDWLNSVRQTGNTTRSGQRGNQSWRAVSRTNPNSGDFRFSLEINVNRNNGSQNSENENEPSARRSSGENVENNSQRQVENPRSESTSARPSRSERNSTEALTEVPPTRGQRRARSRSPDHRRTRARAERSRSPLHPMSEIPRRSHHSISSQTFEHPLVNETEGSSRTRHHVTLRQQISGPELLSRGLFAASGTRNASQGAGSSDTAASGESTGSGQRPPTIVLDLQVRRVRPGEYRQRDSIASRTRSRSQTPNNTVTYESERGGFRRTFSRSERAGVRTYVSTIRIPIRRILNTGLSETTSVAIQTMLRQIMTGFGELSYFMYSDSDSEPTGSVSNRNMERAESRSGRGGSGGGSSSGSSSSSSSSSSSSSSSSSSSSPSSSSGGESSETSSDLFEGSNEGSSSSGSSGARREGRHRAPVTFDESGSLPFLSLAQFFLLNEDDDDQPRGLTKEQIDNLAMRSFGENDALKTCSVCITEYTEGNKLRKLPCSHEYHVHCIDRWLSENSTCPICRRAVLASGNRESVV
binding [1]: binds

B2: Myc-RNF12 S347A/T349A (protein, UniProt Q9NVW2 1-624)
chain: B1 chain with S347A, T349A
binding [1]: binds

B3: endogenous RNF12 (protein, UniProt Q9NVW2 1-624)
chain: B1 chain
binding [2]: binds
